Source: PubChem BioAssay AID504764 (Drosophila RNAi Screening Center, 2011)
Screen: 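Genome-wide screen for regulators of Notch-driven gene expression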 (primary screen). Cell system: Drosophila Kc167 cells. Reagents: long dsRNA against Drosophila genes. Timing: about 5 days (4 days dsRNA, then 24 h after transfection). Challenge: transfection of constitutively active membrane-tethered Notch lacking the extracellular domain, read 24 h later. Measured: 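Light from a Notch-responsive E(spl)m3 luciferase reporter under active Notch, with control-promoter and no-Notch reporter wells to normalise; raw counts from paired wells a and b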. Direction: induced reporter light, run 1, well a and induced reporter light, run 1, well b: higher = more light from the Notch target reporter with active Notch; control promoter light, run 1, well a and control promoter light, run 1, well b: higher = more light from the viral control promoter (cell number, transfection, viability); uninduced reporter light, run 1, well a: higher = more light from the Notch target reporter without active Notch. Hit rule: 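Wells with low control signal or poorly matching duplicates excluded; duplicates averaged; per source plate, z beyond ±2 for induced/control log2 ratio or beyond ±1.8 for induced/uninduced marks a hit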. Calls: active = modifier hit (raised or lowered Notch signal); inactive = not a hit.
In all, the deposit lists about 22,000 reagents; this is an unselected part of those with a known target gene and a result. In the full data, 403 (1.9%) are marked active. 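Unnormalised raw counts per well; ratio z-scores behind the hit calls and whether each hit raises or lowers signal are not deposited.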 A plus sign joins genes that one reagent is predicted to hit. The record does not give: the amount of reagent.

| gene | PubChem SID | induced reporter light, run 1, well a | induced reporter light, run 1, well b | control promoter light, run 1, well a | control promoter light, run 1, well b | uninduced reporter light, run 1, well a | activity call |
| --- | --- | --- | --- | --- | --- | --- | --- |
| CG9308 | SID104184331 | 44340 | 43215 | 42110 | 30940 | 2570 | inactive |
| CG12129 | SID104185897 | 1.75e5 | 1.44e5 | 1.53e5 | 1.56e5 | 15375 | inactive |
| CG14245 | SID104194532 | 1.26e5 | 1.28e5 | 1.83e5 | 1.73e5 | 10335 | inactive |
| CG2059 | SID104197995 | 1.48e5 | 1.53e5 | 3.14e5 | 2.64e5 | 12105 | inactive |
| bel (belle) | SID104196347 | 31300 | 23860 | 29270 | 20828 | 3245 | inactive |
| obst-G (obstructor-G) | SID104190895 | 1.40e5 | 1.11e5 | 1.64e5 | 1.39e5 | 7390 | inactive |
| hgo (homogentisate 1,2-dioxygenase) | SID104183336 | 1.24e5 | 1.31e5 | 74440 | 1.06e5 | 16885 | inactive |
| CG8252 | SID104186918 | 1.82e5 | 1.87e5 | 2.02e5 | 1.85e5 | 16790 | inactive |
| CG10384 | SID104183725 | 70015 | 89580 | 68545 | 70545 | 8350 | inactive |
| CG10384 | SID104183859 | 1.13e5 | 1.36e5 | 1.03e5 | 96635 | 10230 | inactive |
| CG11456 | SID104191457 | 1.01e5 | 92225 | 62100 | 85370 | 7635 | inactive |
| Prosalpha6T (Proteasome alpha6 subunit, Testis-specific) | SID104182665 | 1.71e5 | 1.73e5 | 1.80e5 | 1.74e5 | 16110 | inactive |
| CG10702 | SID104181889 | 2.11e5 | 2.33e5 | 1.73e5 | 2.04e5 | 17500 | inactive |
| CG9123 | SID104199948 | 94210 | 83695 | 1.09e5 | 98010 | 13860 | inactive |
| Rif1 (Rap1 interacting factor 1) | SID104185385 | 94255 | 1.76e5 | 2.06e5 | 2.53e5 | 17685 | inactive |
| Cpsf160 (Cleavage and polyadenylation specificity factor 160) | SID104185760 | 77290 | 96510 | 78395 | 57950 | 6055 | inactive |
| Syt4 (Synaptotagmin 4) | SID104192398 | 83250 | 1.15e5 | 1.27e5 | 1.13e5 | 9035 | inactive |
| udd (under-developed) | SID104186512 | 2.92e5 | 2.78e5 | 3.08e5 | 2.78e5 | 24940 | inactive |
| psq (pipsqueak) | SID104187460 | 9165 | 9345 | 7740 | 6960 | 3480 | inactive |
| Trs23 (TRAPP subunit 23) | SID104182982 | 1.75e5 | 2.14e5 | 1.11e5 | 1.30e5 | 23015 | inactive |
| Gcna (Germ cell nuclear acidic peptidase) | SID104198345 | 1.81e5 | 1.68e5 | 1.96e5 | 2.44e5 | 10088 | inactive |
| CG17959 | SID104197934 | 1.00e5 | 99870 | 1.59e5 | 1.76e5 | 7255 | inactive |
| Mst57Dc (Male-specific transcript 57Dc) | SID104196537 | 2.03e5 | 1.87e5 | 2.15e5 | 2.27e5 | 15392 | inactive |
| BomBc1 (Bomanin Bicipital 1) | SID104186293 | 81600 | 88485 | 1.37e5 | 1.23e5 | 10720 | inactive |
| RtcB (RtcB RNA ligase) | SID104183072 | 42215 | 27545 | 32195 | 32390 | 2925 | inactive |
| EbpII (Ejaculatory bulb protein II) | SID104184429 | 2.19e5 | 1.74e5 | 1.61e5 | 1.76e5 | 15825 | inactive |
| EbpII (Ejaculatory bulb protein II) | SID104201938 | – | – | – | – | – | inactive |
| CG1236 | SID104191995 | 1.47e5 | 1.42e5 | 1.52e5 | 1.12e5 | 11015 | inactive |
| dgt3 (dim gamma-tubulin 3) | SID104184141 | 76210 | 82215 | 61180 | 67595 | 6715 | inactive |
| ND-39 (NADH dehydrogenase (ubiquinone) 39 kDa subunit) | SID104191583 | 84305 | 99880 | 51535 | 61655 | 5862 | inactive |
| mRpS2 (mitochondrial ribosomal protein S2) | SID104180342 | 2.56e5 | 2.36e5 | 2.72e5 | 2.51e5 | 13268 | inactive |
| CG5004 | SID104199721 | 1.01e5 | 1.08e5 | 1.15e5 | 1.14e5 | 11015 | inactive |
| CG5004 | SID104199722 | 78105 | 68695 | 1.10e5 | 73020 | 8938 | inactive |
| CG5004 | SID104199915 | 19835 | 15805 | 8225 | 5660 | 7115 | inactive |
| mRpL32 (mitochondrial ribosomal protein L32) | SID104194271 | 2.08e5 | 1.73e5 | 2.17e5 | 2.10e5 | 16720 | inactive |
| CG10183 | SID104193995 | 2.02e5 | 2.05e5 | 2.25e5 | 1.76e5 | 14040 | inactive |
| sinu (sinuous) | SID104189544 | 1.43e5 | 1.41e5 | 2.31e5 | 2.81e5 | 13295 | inactive |
| mRpL19 (mitochondrial ribosomal protein L19) | SID104196159 | 65455 | 54935 | 58750 | 55875 | 4870 | inactive |
| l(3)neo43 (lethal (3) neo43) | SID104194780 | 2.18e5 | 2.31e5 | 2.04e5 | 1.89e5 | 17240 | inactive |
| Glo1 (Glyoxalase 1) | SID104186449 | 2.33e5 | 2.33e5 | 2.93e5 | 2.87e5 | 18615 | inactive |
| spz5 (spatzle 5) | SID104188437 | 91900 | 83615 | 1.37e5 | 1.56e5 | 7410 | inactive |
| Elp1 (Elongator complex protein 1) | SID104194042 | 1.04e5 | 1.24e5 | 92635 | 76810 | 10110 | inactive |
| KLHL18 (Kelch like family member 18) | SID104195288 | 1.48e5 | 1.25e5 | 93005 | 93875 | 13760 | inactive |
| Adsl (Adenylosuccinate lyase) | SID104195292 | 1.65e5 | 1.62e5 | 1.76e5 | 1.57e5 | 16680 | inactive |
| CG4452 | SID104190214 | 1.18e5 | 97260 | 74800 | 32930 | 10090 | inactive |
| CG30398 | SID104183683 | 87070 | 82255 | 89615 | 76210 | 8775 | inactive |
| CG5568 | SID104190310 | 91750 | 1.07e5 | 70155 | 29125 | 8435 | inactive |
| Ssdp (Sequence-specific single-stranded DNA-binding protein) | SID104196003 | 1.42e5 | 1.35e5 | 1.94e5 | 1.70e5 | 10060 | inactive |
| CG7950 + Rpp14a | SID104196145 | 1.43e5 | 1.26e5 | 2.30e5 | 2.36e5 | 10415 | inactive |
| CG10631 | SID104181873 | 1.71e5 | 1.85e5 | 1.26e5 | 1.24e5 | 11985 | inactive |
| RanBPM (Ran-binding protein M) | SID104185871 | 85115 | 86110 | 37225 | 40280 | 7870 | inactive |
| lectin-21Cb | SID104180147 | 1.24e5 | 1.04e5 | 79755 | 40275 | 8055 | inactive |
| tant (tantalus) | SID104191193 | 1.67e5 | 2.02e5 | 2.47e5 | 1.95e5 | 5068 | inactive |
| CG32795 | SID104198401 | 91210 | 1.09e5 | 1.40e5 | 1.08e5 | 6645 | inactive |
| CG32795 | SID104198402 | 89895 | 1.15e5 | 1.57e5 | 1.40e5 | 8020 | inactive |
| CG13226 | SID104186138 | 1.05e5 | 99825 | 1.43e5 | 1.15e5 | 6565 | inactive |
| CG12693 | SID104197674 | 1.32e5 | 1.21e5 | 2.44e5 | 2.33e5 | 9205 | inactive |
| CG13919 | SID104188180 | 1.45e5 | 1.04e5 | 1.32e5 | 1.54e5 | 7850 | inactive |
| CG14260 | SID104194547 | 1.55e5 | 1.14e5 | 2.13e5 | 1.67e5 | 12060 | inactive |
| prod (proliferation disrupter) | SID104187459 | 1.30e5 | 93155 | 1.94e5 | 1.86e5 | 9435 | inactive |
| mbc (myoblast city) | SID104196787 | 1.95e5 | 1.92e5 | 2.38e5 | 2.20e5 | 14285 | inactive |
| CG13002 | SID104199313 | 1.08e5 | 1.02e5 | 1.48e5 | 1.32e5 | 13375 | inactive |
| CG32425 | SID104191531 | 20885 | 15742 | 8640 | 11875 | 4380 | inactive |
| CG32425 | SID104191556 | 1.03e5 | 1.13e5 | 65785 | 71775 | 7740 | inactive |

Quoted from above (5 entries):
| gene | PubChem SID | induced reporter light, run 1, well a | induced reporter light, run 1, well b | control promoter light, run 1, well a | control promoter light, run 1, well b | uninduced reporter light, run 1, well a | activity call |
| --- | --- | --- | --- | --- | --- | --- | --- |
| mRpL19 (mitochondrial ribosomal protein L19) | SID104196159 | 65455 | 54935 | 58750 | 55875 | 4870 | inactive |
| l(3)neo43 (lethal (3) neo43) | SID104194780 | 2.18e5 | 2.31e5 | 2.04e5 | 1.89e5 | 17240 | inactive |
| Glo1 (Glyoxalase 1) | SID104186449 | 2.33e5 | 2.33e5 | 2.93e5 | 2.87e5 | 18615 | inactive |
| spz5 (spatzle 5) | SID104188437 | 91900 | 83615 | 1.37e5 | 1.56e5 | 7410 | inactive |
| Elp1 (Elongator complex protein 1) | SID104194042 | 1.04e5 | 1.24e5 | 92635 | 76810 | 10110 | inactive |
